PubChem BioAssay AID1159593 – NIAID | 2016
The deposit covers 756 reagents; below is a random part of them. In the full data, 137 (18%) were called active. 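Active means p65 translocation went either up or down; genes were judged on the median of six siRNAs, not single siRNAs.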 A number with no mark means an inactive call. The numbers tell different reagents against one gene apart. No sequences are given here. Not given: the amount of reagent.

Test: 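Canonical TLR pathway genes needed for NF-kappaB activation by LPS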
System: RAW264.7 macrophages of mouse, with reporters for p65 (GFP) and the Tnf promoter (mCherry)
Knock-down reagent: single siRNA against mouse genes
Duration: 48 to 72 hours after siRNA transfection, then LPS for 40 min
Conditions: LPS (Salmonella minnesota R595) for 40 min before fixation; dose not given
Detection: 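Imaged nuclear over cytoplasmic GFP-p65 intensity after 40 min LPS, normalised per plate by median and MAD, robust z-score versus negative controls, mean of replicates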
Reading the numbers: p65 translocation z-score: higher = more nuclear NF-kappaB p65 after LPS
Hit rule: 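z scored in tiers by size in both directions (1, 1.5, 2, 2.5); stated active cut-off missing, but called actives lie near absolute z 1.5 or above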
Meaning of the calls: active = changed p65 translocation (either direction); inactive = no clear change

| target gene | reagent no. | p65 translocation z-score |
| --- | --- | --- |
| Map2k4 (mitogen-activated protein kinase kinase 4) | 1 | 0.731 |
| Map2k4 (mitogen-activated protein kinase kinase 4) | 2 | -0.339 |
| Map2k4 (mitogen-activated protein kinase kinase 4) | 3 | 0.0352 |
| Map2k4 (mitogen-activated protein kinase kinase 4) | 4 | -1.62 (active) |
| Map2k4 (mitogen-activated protein kinase kinase 4) | 5 | -0.855 |
| Map2k4 (mitogen-activated protein kinase kinase 4) | 6 | 0.187 |
| Dusp2 (dual specificity phosphatase 2) | 1 | -0.566 |
| Dusp2 (dual specificity phosphatase 2) | 2 | -4.92 (active) |
| Dusp2 (dual specificity phosphatase 2) | 3 | -1.36 |
| Dusp2 (dual specificity phosphatase 2) | 4 | 0.936 |
| Dusp2 (dual specificity phosphatase 2) | 5 | -1.53 (active) |
| Dusp2 (dual specificity phosphatase 2) | 6 | 0.609 |
| Tradd (TNFRSF1A-associated via death domain) | 1 | -1.04 |
| Tradd (TNFRSF1A-associated via death domain) | 2 | -0.453 |
| Tradd (TNFRSF1A-associated via death domain) | 3 | -0.778 |
| Tradd (TNFRSF1A-associated via death domain) | 4 | -0.23 |
| Tradd (TNFRSF1A-associated via death domain) | 5 | -0.436 |
| Tradd (TNFRSF1A-associated via death domain) | 6 | 0.842 |
| Mapk14 (mitogen-activated protein kinase 14) | 1 | 1.62 (active) |
| Mapk14 (mitogen-activated protein kinase 14) | 2 | 0.63 |
| Mapk14 (mitogen-activated protein kinase 14) | 3 | 0.544 |
| Mapk14 (mitogen-activated protein kinase 14) | 4 | -0.842 |
| Mapk14 (mitogen-activated protein kinase 14) | 5 | -0.931 |
| Mapk14 (mitogen-activated protein kinase 14) | 6 | 2.95 (active) |
| Sp1 (trans-acting transcription factor 1) | 1 | -0.539 |
| Sp1 (trans-acting transcription factor 1) | 2 | -1.84 (active) |
| Sp1 (trans-acting transcription factor 1) | 3 | 0.386 |
| Sp1 (trans-acting transcription factor 1) | 4 | -0.304 |
| Sp1 (trans-acting transcription factor 1) | 5 | -0.0773 |
| Sp1 (trans-acting transcription factor 1) | 6 | 0.357 |

The list goes on (11 carried over from the part before).
| target gene | reagent no. | p65 translocation z-score |
| --- | --- | --- |
| Mapk14 (mitogen-activated protein kinase 14) | 2 | 0.63 |
| Mapk14 (mitogen-activated protein kinase 14) | 3 | 0.544 |
| Mapk14 (mitogen-activated protein kinase 14) | 4 | -0.842 |
| Mapk14 (mitogen-activated protein kinase 14) | 5 | -0.931 |
| Mapk14 (mitogen-activated protein kinase 14) | 6 | 2.95 (active) |
| Sp1 (trans-acting transcription factor 1) | 1 | -0.539 |
| Sp1 (trans-acting transcription factor 1) | 2 | -1.84 (active) |
| Sp1 (trans-acting transcription factor 1) | 3 | 0.386 |
| Sp1 (trans-acting transcription factor 1) | 4 | -0.304 |
| Sp1 (trans-acting transcription factor 1) | 5 | -0.0773 |
| Sp1 (trans-acting transcription factor 1) | 6 | 0.357 |
| Mapk9 (mitogen-activated protein kinase 9) | 1 | 0.122 |
| Mapk9 (mitogen-activated protein kinase 9) | 2 | 0.0198 |
| Mapk9 (mitogen-activated protein kinase 9) | 3 | -0.53 |
| Mapk9 (mitogen-activated protein kinase 9) | 4 | 0.458 |
| Mapk9 (mitogen-activated protein kinase 9) | 5 | -1.97 (active) |
| Mapk9 (mitogen-activated protein kinase 9) | 6 | 0.00789 |
| Map3k7 (mitogen-activated protein kinase kinase kinase 7) | 1 | 0.456 |
| Map3k7 (mitogen-activated protein kinase kinase kinase 7) | 2 | 0.677 |
| Map3k7 (mitogen-activated protein kinase kinase kinase 7) | 3 | -2.29 (active) |
| Map3k7 (mitogen-activated protein kinase kinase kinase 7) | 4 | 0.0712 |
| Map3k7 (mitogen-activated protein kinase kinase kinase 7) | 5 | 1.41 |
| Map3k7 (mitogen-activated protein kinase kinase kinase 7) | 6 | 3.09 (active) |
| Tab1 (TGF-beta activated kinase 1/MAP3K7 binding protein 1) | 1 | -0.134 |
| Tab1 (TGF-beta activated kinase 1/MAP3K7 binding protein 1) | 2 | -0.484 |
| Tab1 (TGF-beta activated kinase 1/MAP3K7 binding protein 1) | 3 | -0.667 |
| Tab1 (TGF-beta activated kinase 1/MAP3K7 binding protein 1) | 4 | -0.622 |
| Tab1 (TGF-beta activated kinase 1/MAP3K7 binding protein 1) | 5 | -1.79 (active) |
| Tab1 (TGF-beta activated kinase 1/MAP3K7 binding protein 1) | 6 | -0.0679 |
| Map3k14 (mitogen-activated protein kinase kinase kinase 14) | 1 | -0.553 |
| Map3k14 (mitogen-activated protein kinase kinase kinase 14) | 2 | 0.887 |
| Map3k14 (mitogen-activated protein kinase kinase kinase 14) | 3 | -1.27 |
| Map3k14 (mitogen-activated protein kinase kinase kinase 14) | 4 | 0.286 |
| Map3k14 (mitogen-activated protein kinase kinase kinase 14) | 5 | 5.75 (active) |
| Map3k14 (mitogen-activated protein kinase kinase kinase 14) | 6 | -1.48 |
| Fadd (Fas associated via death domain) | 1 | -0.156 |
| Fadd (Fas associated via death domain) | 2 | -1.27 |
| Fadd (Fas associated via death domain) | 3 | -1.36 |
| Fadd (Fas associated via death domain) | 4 | -0.827 |
| Fadd (Fas associated via death domain) | 5 | -0.409 |
| Fadd (Fas associated via death domain) | 6 | -0.0912 |
| Tlr1 (toll-like receptor 1) | 1 | 0.744 |
| Tlr1 (toll-like receptor 1) | 2 | -0.0855 |
| Tlr1 (toll-like receptor 1) | 3 | 0.0575 |
| Tlr1 (toll-like receptor 1) | 4 | -0.559 |
| Tlr1 (toll-like receptor 1) | 5 | -1.35 |
| Tlr1 (toll-like receptor 1) | 6 | 0.153 |
| Elf4 (E74 like ETS transcription factor 4) | 1 | 0.0659 |
| Elf4 (E74 like ETS transcription factor 4) | 2 | -0.951 |
| Elf4 (E74 like ETS transcription factor 4) | 3 | -1.19 |
| Elf4 (E74 like ETS transcription factor 4) | 4 | -0.124 |
| Elf4 (E74 like ETS transcription factor 4) | 5 | -1.07 |
| Elf4 (E74 like ETS transcription factor 4) | 6 | 0.192 |
| Itgax (integrin alpha X) | 1 | -0.606 |
| Itgax (integrin alpha X) | 2 | -0.821 |
| Itgax (integrin alpha X) | 3 | -1.47 |
| Itgax (integrin alpha X) | 4 | -0.607 |
| Itgax (integrin alpha X) | 5 | -0.777 |
| Itgax (integrin alpha X) | 6 | -0.7 |
